Patent publication US11788086B2, “Antitumor compounds and tumor diagnosis” (CBMED GMBH CENTER FOR BIOMARKER RESEARCH IN MEDICINE, priority 2016, dated 2023)
Entries after “also recorded” stand apart in the source; their conditions may differ. For at least one compound, name, drawing or mass did not settle the structure.

Columns and labels:
[1] = tested on: colon cancer PDX models; assay: Protein expression in colon cancer patients derived xenograft (PDX) models under chemotherapeutic treatment; type: in vivo, mice; settings: vs untreated control, not statistically significant
Experimental: (§1) Protein expression was analyzed in NP-40 tissue lysates. Therefore normalized protein amounts were loaded onto 8% or 12.5% polyacrylamide gels in consideration of the molecular mass of the protein of interest. Electrophoresis was performed for 1.5 h at 120 V in SDS Running Buffer with the Mini-vertical electrophoresis unit (Amersham Biosciences). Then separated proteins were transferred to PVDF-membranes (Immobilin-P Transfer Membran; Millipore) using a Semi Dry Blotting Unit (JH BioInnovations) at 160 mA for 1.5 hours. Membranes were blocked with 5% non-fat dried milk (AppliChem) in Tris-buffered saline-Tween (TBS-T; 0.2 M Tris, 1.4 M NaCl, pH 7.4, 0.1% Tween) for 1 h, followed by a primary antibody incubation (overnight at 4° C.) and an 1 h secondary antibody incubation (1:3000 dilution, GE Healthcare). All primary antibodies were diluted in 5% bovine serum albumin diluted in TBS-T. Between incubation steps membranes were washed 3 times in TBS-T for 10 min. Membranes were then developed with an enhanced chemiluminescence (ECL) Western blotting system (GE healthcare) using the ChemiImager™ System (Alpha Innotech). Immunoblots were evaluated semi-quantitative using ImageJ (Schneider C A, et al. Nat Meth. 9(2012):671-5) software for densitometric analyses. Relative densities were then calculated by normalizing density values for each protein to the loading control (Actin).
(§2) Samples of patients suffering from colon cancer or GBMs were transplanted into 3 to 6 immunodeficient NOD/SCID mice. The tumor growth was monitored in a daily rhythm. At a size of about 1 cm^3, the tumors were removed and transferred to naive NMRI:nu/nu mice for chemosensitivity testing. Xenotransplanted carcinomas and metastases were treated with different standard and novel chemotherapeutic drugs. During chemosensitivity testing the tumor volume was measured regularly and used to generate growth curves. After a time period of 30-40 days the tumors were excised and analyzed by Immunoblot and Real-Time-PCR. Chemosensitivity data were kindly provided by EPO Berlin-Buch GmbH. Tumor volume of treatment in comparison to control (T/C) was calculated in percent.

[2] = tested on: murine GBM xenografts; assay: Chemosensitivity testing in murine GBM xenograft models: tumor growth; type: in vivo, mice
[3] = tested on: U-87 MG glioma cell line; assay: eIF protein expression after Temozolomide treatment in U-87 MG glioma cell line (immunoblot); type: cell-based, human; settings: for eIF subunits protein expression, treatment for 3 and 5 days: U-87 MG, 20, 50 and 100 μM, vs DMSO / untreated
[4] = tested on: eIF protein expression; assay: eIF protein expression after chemosensitivity testings in murine GBM xenograft models (immunoblot); type: in vivo, mice
Experimental: as §1, §2
Additionally to single treatments with each compound, combination therapies for Temozolomide/Everolimus, Temozolomide/Regorafenib and Temozolomide/Thalidomide were investigated.

[5] = murine GBM xenografts, vs PBS control and other treatments

Q: How did the eIF2α protein expression ([1]; CM PDX model) turn out when CN(C)C/C=C/C(=O)Nc1cc2c(Nc3ccc(F)c(Cl)c3)ncnc2cc1O[C@H]1CCOC1 [Afatinib] was run?
A: tendency to be increased

Q: What about the eIF3J protein expression ([1]; CM PDX model) of the same compound?
A: tendency to be increased

Q: What about the eIF4B protein expression ([1]; CM PDX model) of the same compound?
A: tendency to be increased

Q: And the eIF5 protein expression ([1]; CM PDX model)?
A: tendency to be increased

Q: And the mTOR protein expression ([1]; colon metastasis (CM) PDX model)?
A: tendency to be upregulated; also recorded: tendency to be increased

Q: Which “response of xenograft model X5” value ([2]; GBM xenograft model X5) does the source give for Cn1nnc2c(C(N)=O)ncn2c1=O [Temozolomide] here?
A: resistant

Q: What about the tumor growth ([2]; murine GBM xenograft models (all of X5-X9, X11 except X5)) of the same compound?
A: drastically reduced tumor growth; also recorded: effectively reduced tumor growth

Q: And the “eIF downregulation at the highest concentration” value ([3]; U-87 MG, 100 μM)?
A: seemed to block eIF downregulation

Q: And the “eIF subunits protein expression, treatment for 3 and 5 days” value [3]?
A: down-regulated

Q: And the “eIF subunits protein expression, treatment for 3 and 5 days” value ([3]; listed as Temozoloide)?
A: Down-regulation

Q: And the “eIF subunits protein expression, first day of treatment” value ([3]; U-87 MG, day 1)?
A: Almost no effect

Q: And the “eIF6 protein expression in resistant xenograft model X5” value ([4]; model X5 compared to the non-resistant models)?
A: increased

Q: And the “eIF4A protein expression (FIG. 37m)” value ([4]; murine GBM xenografts)?
A: did not response

Q: And the “eIF6 protein expression (FIG. 37r)” value ([4]; murine GBM xenografts)?
A: did not response

Q: And the “eIF protein expression (eIF subunits overall)” value ([4]; murine GBM xenografts, compared to PBS treated controls)?
A: totally down-regulated

Q: What about the eIF3C protein expression ([4]; murine GBM xenografts, vs PBS control) of the same compound?
A: significantly reduced

Q: And the “eIF3A protein levels (FIG. 37d)” value [4, 5]?
A: significantly reduced

Q: What about the “eIF3B protein levels (FIG. 37e)” value [4, 5] of the same compound?
A: significantly reduced

Q: What about the “eIF3D protein levels (FIG. 37g)” value [4, 5] of the same compound?
A: significantly reduced

Q: And the “eIF3H protein levels (FIG. 37h)” value [4, 5]?
A: significantly reduced

Q: And the “eIF3I protein levels (FIG. 37i)” value [4, 5]?
A: significantly reduced

Q: What about the “eIF3I protein levels (FIG. 37j)” value [4, 5] of the same compound?
A: significantly reduced

Q: What about the “eIF4E protein levels (FIG. 37o)” value [4, 5] of the same compound?
A: significantly reduced

Q: What about the “eIF4G protein levels (FIG. 37p)” value [4, 5] of the same compound?
A: significantly reduced

Q: What about the “p-eIF2α protein levels (FIG. 37b)” value [4, 5] of the same compound?
A: significantly reduced

Q: And the “p-eIF4B protein levels (FIG. 37n)” value [4, 5]?
A: significantly reduced

Q: What about the “eIF4H protein levels (FIG. 37q)” value ([4]; murine GBM xenografts, vs PBS control and other treatments, p<0.01) of the same compound?
A: significantly reduced
